Assay results from article PMC8630767.
These are yes or no findings as the source states them, for the method shown. In cells and extracts the contact can be indirect. A result given as binding can be weak or reduced; the word gives no strength.

Sequences of proteins named here, by UniProt entry; tags and fusion partners are left off. A change or cut given only in a name is not applied to a line headed by its entry. A line that says so, or that is headed by a name, gives the form on record, which may keep a tag or linker.
2×Flag-xlMRAP2.L (Xenopus laevis melanocortin receptor accessory protein 2, L subgenome copy) (A0A1L8G9N8, form named): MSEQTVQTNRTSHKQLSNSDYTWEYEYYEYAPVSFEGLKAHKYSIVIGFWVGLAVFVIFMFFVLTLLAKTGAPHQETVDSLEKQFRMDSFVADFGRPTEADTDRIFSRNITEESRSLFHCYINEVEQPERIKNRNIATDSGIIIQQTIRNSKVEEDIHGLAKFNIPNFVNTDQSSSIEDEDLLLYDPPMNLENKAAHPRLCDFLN
xlMRAP2.S with N-terminal VF2 (part of Venus) and C-terminal 2×Flag (A0A1L8G336, form named): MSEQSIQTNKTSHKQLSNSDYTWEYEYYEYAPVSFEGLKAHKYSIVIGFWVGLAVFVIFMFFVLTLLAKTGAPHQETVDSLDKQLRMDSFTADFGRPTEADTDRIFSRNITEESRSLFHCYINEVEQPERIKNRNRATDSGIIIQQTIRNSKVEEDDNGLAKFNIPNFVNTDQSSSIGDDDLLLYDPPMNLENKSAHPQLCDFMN

What was measured:
[1] = molecular target: xlMC3R.S with VF1 (part of Venus) at the C-terminus (Xenopus laevis); experiment: split reporter; bimolecular fluorescence complementation of split Venus (VF1 on xlMC3Rs, VF2 on xlMRAPs) in transfected HEK293T cells, fixed 24 h after transfection, confocal microscopy
[2] = molecular target: 3×HA-xlMC3R.S (Xenopus laevis melanocortin-3 receptor, S subgenome copy) (Xenopus laevis); experiment: co-IP; HEK293T cells co-transfected with 3×HA-xlMC3Rs and 2×Flag-xlMRAPs; lysate incubated with HA-tag rabbit mAb overnight at 4°C, protein A/G agarose beads; blot with anti-FLAG and anti-HA

binding [1]	binding [2]	Substance
binds	–	xlMRAP2.L with N-terminal VF2 (part of Venus) and C-terminal 2×Flag (from UniProt A0A1L8G9N8 1-205)
–	binds	2×Flag-xlMRAP2.L (Xenopus laevis melanocortin receptor accessory protein 2, L subgenome copy) (from UniProt A0A1L8G9N8 1-205)
–	binds	2×Flag-xlMRAP2.S (Xenopus laevis melanocortin receptor accessory protein 2, S subgenome copy) (from UniProt A0A1L8G336 1-205)
binds	–	xlMRAP2.S with N-terminal VF2 (part of Venus) and C-terminal 2×Flag (from UniProt A0A1L8G336 1-205)
